Assay results reported in publication PMC4613680.
These are yes or no findings as the source states them, for the method shown. Binding seen in cells or lysates may run through a third protein. Some results given as binding are weak or reduced against the parent protein; the word gives no strength. Where a sequence is shown, tags or fusion partners need not be part of it.

Sequences of proteins named here, by UniProt entry; tags and fusion partners are left off.
UniProt P28482: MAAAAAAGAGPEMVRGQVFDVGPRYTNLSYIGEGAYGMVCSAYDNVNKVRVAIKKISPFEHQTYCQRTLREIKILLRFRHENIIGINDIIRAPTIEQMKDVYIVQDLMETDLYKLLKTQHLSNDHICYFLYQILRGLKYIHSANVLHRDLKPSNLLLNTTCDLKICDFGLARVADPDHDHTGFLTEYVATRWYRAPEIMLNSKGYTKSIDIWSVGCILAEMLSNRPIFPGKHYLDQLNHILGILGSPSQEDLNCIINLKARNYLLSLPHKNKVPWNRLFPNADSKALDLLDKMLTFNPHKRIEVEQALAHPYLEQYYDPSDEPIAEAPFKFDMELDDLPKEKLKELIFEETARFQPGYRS
UniProt P27361: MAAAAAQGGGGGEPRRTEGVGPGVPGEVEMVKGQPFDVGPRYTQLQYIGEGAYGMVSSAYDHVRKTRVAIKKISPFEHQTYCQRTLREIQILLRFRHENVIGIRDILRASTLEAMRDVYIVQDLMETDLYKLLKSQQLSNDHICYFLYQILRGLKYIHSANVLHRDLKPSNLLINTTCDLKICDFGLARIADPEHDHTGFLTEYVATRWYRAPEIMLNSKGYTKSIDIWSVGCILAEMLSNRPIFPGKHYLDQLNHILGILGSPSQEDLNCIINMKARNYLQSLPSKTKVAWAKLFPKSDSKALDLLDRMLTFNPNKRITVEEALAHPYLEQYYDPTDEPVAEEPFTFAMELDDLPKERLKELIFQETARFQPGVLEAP

What was measured:
[1] = biological target: Flag-ERK2 (extracellular signal-regulated kinase 2) (UniProt P28482); experiment: co-IP; COS cells co-transfected with Myc-WT-CIITA and Flag-ERK1, Flag-ERK2 or both; lysed in 1% NP40 18 h after transfection; pre-cleared with mouse IgG and Protein G; immunoprecipitated with anti-Myc or anti-Flag as indicated; immunoblotted with anti-Myc
[2] = biological target: Flag-ERK1 (extracellular signal-regulated kinase 1) (UniProt P27361); experiment: as above

binding [1]: binds
binding [2]: binds
B1: Myc-WT-CIITA (class II transactivator, isoform III) (protein, UniProt P33076 1-1130)
chain: MRCLAPRPAGSYLSEPQGSSQCATMELGPLEGGYLELLNSDADPLCLYHFYDQMDLAGEEEIELYSEPDTDTINCDQFSRLLCDMEGDEETREAYANIAELDQYVFQDSQLEGLSKDIFKHIGPDEVIGESMEMPAEVGQKSQKRPFPEELPADLKHWKPAEPPTVVTGSLLVGPVSDCSTLPCLPLPALFNQEPASGQMRLEKTDQIPMPFSSSSLSCLNLPEGPIQFVPTISTLPHGLWQISEAGTGVSSIFIYHGEVPQASQVPPPSGFTVHGLPTSPDRPGSTSPFAPSATDLPSMPEPALTSRANMTEHKTSPTQCPAAGEVSNKLPKWPEPVEQFYRSLQDTYGAEPAGPDGILVEVDLVQARLERSSSKSLERELATPDWAERQLAQGGLAEVLLAAKEHRRPRETRVIAVLGKAGQGKSYWAGAVSRAWACGRLPQYDFVFSVPCHCLNRPGDAYGLQDLLFSLGPQPLVAADEVFSHILKRPDRVLLILDGFEELEAQDGFLHSTCGPAPAEPCSLRGLLAGLFQKKLLRGCTLLLTARPRGRLVQSLSKADALFELSGFSMEQAQAYVMRYFESSGMTEHQDRALTLLRDRPLLLSHSHSPTLCRAVCQLSEALLELGEDAKLPSTLTGLYVGLLGRAALDSPPGALAELAKLAWELGRRHQSTLQEDQFPSADVRTWAMAKGLVQHPPRAAESELAFPSFLLQCFLGALWLALSGEIKDKELPQYLALTPRKKRPYDNWLEGVPRFLAGLIFQPPARCLGALLGPSAAASVDRKQKVLARYLKRLQPGTLRARQLLELLHCAHEAEEAGIWQHVVQELPGRLSFLGTRLTPPDAHVLGKALEAAGQDFSLDLRSTGICPSGLGSLVGLSCVTRFRAALSDTVALWESLQQHGETKLLQAAEEKFTIEPFKAKSLKDVEDLGKLVQTQRTRSSSEDTAGELPAVRDLKKLEFALGPVSGPQAFPKLVRILTAFSSLQHLDLDALSENKIGDEGVSQLSATFPQLKSLETLNLSQNNITDLGAYKLAEALPSLAASLLRLSLYNNCICDVGAESLARVLPDMVSLRVMDVQYNKFTAAGAQQLAASLRRCPHVETLAMWTPTIPFSVQEHLQQQDSRISLR
